Reference: paper PMC7819943, “Rice protein-binding microarrays: a tool to detect cis-acting elements near promoter regions in rice”
The other results are listed elsewhere or left out.

Target: T1, OsSMF1 (Oryza sativa, UniProt Q6ZLB0 1-436)
T1 sequence: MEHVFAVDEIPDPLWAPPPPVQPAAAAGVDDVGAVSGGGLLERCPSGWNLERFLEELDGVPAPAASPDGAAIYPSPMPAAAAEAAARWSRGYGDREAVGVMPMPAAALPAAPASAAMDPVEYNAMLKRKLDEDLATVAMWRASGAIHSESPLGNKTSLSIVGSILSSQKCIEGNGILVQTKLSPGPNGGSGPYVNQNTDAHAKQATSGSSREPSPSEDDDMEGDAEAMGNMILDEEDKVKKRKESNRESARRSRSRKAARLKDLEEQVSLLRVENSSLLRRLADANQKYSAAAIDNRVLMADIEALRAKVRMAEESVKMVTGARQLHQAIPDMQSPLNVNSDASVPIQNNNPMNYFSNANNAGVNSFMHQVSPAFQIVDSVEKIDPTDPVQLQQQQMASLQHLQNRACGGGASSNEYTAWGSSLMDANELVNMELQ
Experiment: protein-binding microarray (RPBM); PBS, 2% BSA, 51.3 ng/ul salmon testes DNA, 50 uM zinc acetate, 200 nM TF, 25 C, 1 h; high values mean tight binding
Conditions: protein: recombinant; tags: N-terminal polyhistidine and DsRed monomer fusion (pET32a); chain copies: 2; label: CyDye5-dUTP incorporated in the synthesized complementary strand; 3' TTTTT single-stranded linker to array surface; dsDNA, one strand shown
Summary of the method: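 Binding signal is defined as the fluorescence intensity of each feature in arbitrary units, read on an Axon 4000B scanner. Transcription factors with N-terminal polyhistidine and DsRed fusions came from E. coli BL21-CodonPlus and were purified on Ni–NTA. They were incubated at 200 nM for 1 h at 25 °C on a custom Agilent array that had been made double-stranded with Cy5-dUTP, with 50 µM zinc acetate present, and the array was washed.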

Sequence	binding signal
CCAAGACCGCAGGCACAGGCGCCGGCGGCGCACACAACACCGGAGTCACCTAGTGCAG	5070 fluorescence intensity (a.u.)
GCTCTGTCTGTGTGCGCCACGTACGTTATCGTCGACCGATCGGAGTCACCTAGTGCAG	11200 fluorescence intensity (a.u.)
GCTTGATCTCTTTCTAGCTCTACCGGCGGCGTGGCGGCGGCGGAGTCACCTAGTGCAG	3160 fluorescence intensity (a.u.)
CCCCTTTTGCTTGCTGACAACCATTGAAACACTACCATAACGGAGTCACCTAGTGCAG	3230 fluorescence intensity (a.u.)
CAAACCACAGTGTTCCACGTCATCATCAATTGACAGCCGTCGGAGTCACCTAGTGCAG	37800 fluorescence intensity (a.u.)
CCGCTTCGCCCCGGCCGCCGCGTTCGCACGCTGCCTCCGTCGGAGTCACCTAGTGCAG	3400 fluorescence intensity (a.u.)
CCCGCCGCCGCCGGAGAAGCCTAGTGTTACGTTTACGGTTCGGAGTCACCTAGTGCAG	21300 fluorescence intensity (a.u.)
AGAATCTGTGTTCATGTGGATTTAATATTCTGAAATCTGCCGGAGTCACCTAGTGCAG	3430 fluorescence intensity (a.u.)
TAGTATCCAAAGCTCAGCGAGGAGTACGTGTGCCGGCGCACGGAGTCACCTAGTGCAG	3160 fluorescence intensity (a.u.)
TGTTCGATCACAACGGCTTGTTTTCCTTTTCGCTTGCGTGCGGAGTCACCTAGTGCAG	22700 fluorescence intensity (a.u.)
CGGAACTAATTAACTAAAATTAAACCCCGCTTTCTCGGTCCGGAGTCACCTAGTGCAG	3170 fluorescence intensity (a.u.)
CACTTGCTGTTCAGGTGTCATAAGCCATTCCTGGACTTCACGGAGTCACCTAGTGCAG	3250 fluorescence intensity (a.u.)
CGCCTCGCATCTGTTTGGCTTCCACGCCACTGCTCTGCAACGGAGTCACCTAGTGCAG	3900 fluorescence intensity (a.u.)
ACCCTTTGCAAGCTGATGCATGAGTAATGCTTGCTGCTGACGGAGTCACCTAGTGCAG	4800 fluorescence intensity (a.u.)
CAACAACGGCGGCTTGATATGCCAGCTGTATGTTGATCTGCGGAGTCACCTAGTGCAG	3960 fluorescence intensity (a.u.)
ACTGGCCGTGACGCATTTCAACCTCTTGATCTGAACTGCCCGGAGTCACCTAGTGCAG	3620 fluorescence intensity (a.u.)
TAAAACCGGGGCACACGTCAGCGGCCTACTAGACACTTCCCGGAGTCACCTAGTGCAG	12300 fluorescence intensity (a.u.)
GCATCTGGCGAAAGTGCCACCCCTACGTGCCCTTAAATTGCGGAGTCACCTAGTGCAG	3730 fluorescence intensity (a.u.)
GTGAGGCCGCCGTCGCCACGCACTCGACCGCCTTTGCTCCCGGAGTCACCTAGTGCAG	5050 fluorescence intensity (a.u.)
GCTGTTGACGTACATGTCGTCATATACGCATGTCCTCGTTCGGAGTCACCTAGTGCAG	6920 fluorescence intensity (a.u.)
TGAGTTGAGGTGATGCTGATCGCTCATCGCTCTTCATGTGCGGAGTCACCTAGTGCAG	3220 fluorescence intensity (a.u.)

Looked up one by one from the entries so far, 3 records:
Sequence	binding signal
CGGAACTAATTAACTAAAATTAAACCCCGCTTTCTCGGTCCGGAGTCACCTAGTGCAG	3170 fluorescence intensity (a.u.)
TAGTATCCAAAGCTCAGCGAGGAGTACGTGTGCCGGCGCACGGAGTCACCTAGTGCAG	3160 fluorescence intensity (a.u.)
ACTGGCCGTGACGCATTTCAACCTCTTGATCTGAACTGCCCGGAGTCACCTAGTGCAG	3620 fluorescence intensity (a.u.)

Additional results.

Sequence	binding signal
GCGATGAGGTGTCACATACCGTGACGTCACCATTTTCATTCGGAGTCACCTAGTGCAG	25900 fluorescence intensity (a.u.)
ATGTGGCGGCAGAGTGGGAGTAGAAGGCTGGGACGGCGCGCGGAGTCACCTAGTGCAG	10600 fluorescence intensity (a.u.)
AAAGAATTTCACACTTTGATTGCAGATGTCATTTCCAGTGCGGAGTCACCTAGTGCAG	3500 fluorescence intensity (a.u.)
CTTCGCCTCGTCGGCCATTACACGCGGCAGCGGCCCTCATCGGAGTCACCTAGTGCAG	3430 fluorescence intensity (a.u.)
CCCAACGCGTCACGCCGCCATTTCTTGGCCTCCCACTCGCCGGAGTCACCTAGTGCAG	5190 fluorescence intensity (a.u.)
ATGGCCAGACAACTGTGTGGCCAGGAAGAACACATCCCTGCGGAGTCACCTAGTGCAG	3150 fluorescence intensity (a.u.)
CACCTTCAGCACCGGAAAGTGTTGGTGACGGGGCATTTGGCGGAGTCACCTAGTGCAG	4770 fluorescence intensity (a.u.)
TCCGATTTGGTACACGTAGCAAGTTAACACACCCAACGCGCGGAGTCACCTAGTGCAG	4320 fluorescence intensity (a.u.)
TTGTCGAGGTCGCTAGATCCACTTTAGGGGTGGCAACGCACGGAGTCACCTAGTGCAG	3140 fluorescence intensity (a.u.)
ACTGCAATTTTATTCACTCTGTGCGTGTCACATCTGGGTCCGGAGTCACCTAGTGCAG	5320 fluorescence intensity (a.u.)
GGAAGCCATTTCACGTTCGAATCTTATGTCAGCCAGCTTACGGAGTCACCTAGTGCAG	3900 fluorescence intensity (a.u.)
GGGCCGAACCTTGGGCCCACACGACAGATCGTGACAGCCGCGGAGTCACCTAGTGCAG	3280 fluorescence intensity (a.u.)
CTTAAACACTACCTAGTGTACAAGTCAGTACTACAGTACACGGAGTCACCTAGTGCAG	3210 fluorescence intensity (a.u.)
AATTTCACACGCAATATCTATCACACGTGTCAGTGATGCACGGAGTCACCTAGTGCAG	18900 fluorescence intensity (a.u.)
GGCTGTTCGAAATCAATATTGTTGTAGGTGACTGAACTAGCGGAGTCACCTAGTGCAG	15100 fluorescence intensity (a.u.)
CGCTGTTTCTTCGTACGTGGCTGTTTAGGCTCCTCAGAAACGGAGTCACCTAGTGCAG	4710 fluorescence intensity (a.u.)
AACCGGAGAGCGGTGACGCGGACGTGCCTGCCCAACGCAACGGAGTCACCTAGTGCAG	5410 fluorescence intensity (a.u.)
AATTACAGATTCCGTCAGAAAACTGTGAGACAGATTTATTCGGAGTCACCTAGTGCAG	3290 fluorescence intensity (a.u.)
GCATCTGCAGTGACACACAATTAGGTGAACTAACAACGTCCGGAGTCACCTAGTGCAG	3890 fluorescence intensity (a.u.)
CAGGTCGGACGTGTAGCGTAGCGTCCCTTTCCCATATTGACGGAGTCACCTAGTGCAG	3720 fluorescence intensity (a.u.)
CTTTGCACTGTTCGATTCATTCGTCACGGCACAAGAAACCCGGAGTCACCTAGTGCAG	3390 fluorescence intensity (a.u.)
